Reference: article PMC9849111

The chains behind the UniProt entries cited, without tags or fusion partners.
UniProt P70398: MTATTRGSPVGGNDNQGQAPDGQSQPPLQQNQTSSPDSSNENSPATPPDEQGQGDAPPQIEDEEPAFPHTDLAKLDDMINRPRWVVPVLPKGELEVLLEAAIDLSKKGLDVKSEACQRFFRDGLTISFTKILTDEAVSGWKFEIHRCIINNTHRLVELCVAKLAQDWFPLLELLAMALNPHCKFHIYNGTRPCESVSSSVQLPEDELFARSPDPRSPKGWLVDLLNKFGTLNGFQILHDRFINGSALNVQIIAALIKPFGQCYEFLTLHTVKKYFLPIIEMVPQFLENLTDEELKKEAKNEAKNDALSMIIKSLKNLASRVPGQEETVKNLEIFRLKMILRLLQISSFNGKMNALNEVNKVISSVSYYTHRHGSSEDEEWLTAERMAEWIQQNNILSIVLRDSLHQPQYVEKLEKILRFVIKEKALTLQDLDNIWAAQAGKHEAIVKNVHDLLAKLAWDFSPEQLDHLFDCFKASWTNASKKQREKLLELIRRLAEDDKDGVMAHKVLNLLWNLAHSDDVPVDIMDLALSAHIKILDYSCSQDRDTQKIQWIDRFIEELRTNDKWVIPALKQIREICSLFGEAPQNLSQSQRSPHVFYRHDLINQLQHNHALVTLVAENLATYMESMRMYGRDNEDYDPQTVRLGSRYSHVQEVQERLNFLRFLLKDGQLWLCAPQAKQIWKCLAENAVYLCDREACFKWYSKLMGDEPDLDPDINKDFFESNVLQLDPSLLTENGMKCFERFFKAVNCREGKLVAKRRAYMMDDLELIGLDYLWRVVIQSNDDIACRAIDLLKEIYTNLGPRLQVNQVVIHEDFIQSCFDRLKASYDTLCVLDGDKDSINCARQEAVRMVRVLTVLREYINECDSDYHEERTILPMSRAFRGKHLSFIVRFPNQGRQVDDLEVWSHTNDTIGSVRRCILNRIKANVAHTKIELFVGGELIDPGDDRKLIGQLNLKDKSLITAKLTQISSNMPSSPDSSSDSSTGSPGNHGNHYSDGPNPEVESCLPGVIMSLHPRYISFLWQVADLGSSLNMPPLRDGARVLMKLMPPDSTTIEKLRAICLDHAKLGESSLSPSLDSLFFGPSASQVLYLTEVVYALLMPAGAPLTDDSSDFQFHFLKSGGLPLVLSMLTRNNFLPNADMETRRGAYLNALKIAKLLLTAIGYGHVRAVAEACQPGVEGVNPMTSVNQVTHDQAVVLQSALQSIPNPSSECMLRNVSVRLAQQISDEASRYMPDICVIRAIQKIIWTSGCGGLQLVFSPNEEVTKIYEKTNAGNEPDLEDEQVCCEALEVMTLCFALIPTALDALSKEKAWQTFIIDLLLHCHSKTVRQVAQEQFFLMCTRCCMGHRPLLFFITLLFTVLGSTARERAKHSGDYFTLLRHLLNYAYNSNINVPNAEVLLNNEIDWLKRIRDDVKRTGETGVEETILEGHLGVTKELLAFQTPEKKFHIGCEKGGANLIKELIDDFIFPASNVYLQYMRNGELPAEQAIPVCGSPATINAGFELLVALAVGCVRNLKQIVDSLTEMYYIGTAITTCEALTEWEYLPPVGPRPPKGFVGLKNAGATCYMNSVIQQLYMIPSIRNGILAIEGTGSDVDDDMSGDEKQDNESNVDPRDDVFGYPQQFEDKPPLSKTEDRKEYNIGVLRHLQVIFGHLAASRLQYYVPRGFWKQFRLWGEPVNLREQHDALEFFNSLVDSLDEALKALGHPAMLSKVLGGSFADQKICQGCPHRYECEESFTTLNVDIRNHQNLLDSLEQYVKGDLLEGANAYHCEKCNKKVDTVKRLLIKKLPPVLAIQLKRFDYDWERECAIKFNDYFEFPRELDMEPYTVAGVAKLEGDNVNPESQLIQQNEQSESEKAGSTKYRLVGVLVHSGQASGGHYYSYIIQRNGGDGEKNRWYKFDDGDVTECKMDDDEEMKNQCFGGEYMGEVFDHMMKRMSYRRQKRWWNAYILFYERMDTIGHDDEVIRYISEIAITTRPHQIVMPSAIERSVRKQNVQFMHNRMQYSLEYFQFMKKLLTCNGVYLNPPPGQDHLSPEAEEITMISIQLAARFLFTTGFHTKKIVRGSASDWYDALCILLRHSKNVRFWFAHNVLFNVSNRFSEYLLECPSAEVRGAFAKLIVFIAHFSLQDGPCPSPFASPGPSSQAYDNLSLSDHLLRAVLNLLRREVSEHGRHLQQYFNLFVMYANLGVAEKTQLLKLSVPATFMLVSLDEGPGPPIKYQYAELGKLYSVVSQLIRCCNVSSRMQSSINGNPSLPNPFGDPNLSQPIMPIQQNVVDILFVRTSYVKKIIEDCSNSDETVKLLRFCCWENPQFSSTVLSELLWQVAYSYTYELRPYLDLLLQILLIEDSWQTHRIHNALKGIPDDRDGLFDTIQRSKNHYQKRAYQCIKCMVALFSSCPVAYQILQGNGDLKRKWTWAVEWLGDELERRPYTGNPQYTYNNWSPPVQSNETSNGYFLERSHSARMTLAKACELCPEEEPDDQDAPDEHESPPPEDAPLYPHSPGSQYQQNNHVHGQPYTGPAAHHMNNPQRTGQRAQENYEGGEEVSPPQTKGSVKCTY

Target: Flag-NRP1 (Neuropilin-1), transfected in mouse primary HSCs (murine) (UniProt P97333)
Test: affinity purification with mass spectrometry; Flag-NRP1 transfected in mouse primary HSCs for 24 h; Co-IP of cell lysates with Flag beads, Coomassie blue staining, LC-MS/MS

USP9X (ubiquitin-specific peptidase 9X), endogenous in mouse HSCs (from UniProt P70398 1-2559) (enzyme)
binding: binds

Results are given in words; binding and its absence hold for the method and conditions named. In cells and extracts the contact can be indirect. A yes stands for co-enrichment or nearness to the bait. Other partners may have been found.
